Laboratory results taken from publication PMC6092110.
No constants are given. Whether binding was seen depends on the method and setting. For some of these results: Binding seen in cells or lysates may run through a third protein. Some entries that bind do so weakly or less than the wild type.

Chains of the proteins cited; added tags and fusions are not shown. Residues count along the entry.
UniProt Q9QUN9, residues 23-349: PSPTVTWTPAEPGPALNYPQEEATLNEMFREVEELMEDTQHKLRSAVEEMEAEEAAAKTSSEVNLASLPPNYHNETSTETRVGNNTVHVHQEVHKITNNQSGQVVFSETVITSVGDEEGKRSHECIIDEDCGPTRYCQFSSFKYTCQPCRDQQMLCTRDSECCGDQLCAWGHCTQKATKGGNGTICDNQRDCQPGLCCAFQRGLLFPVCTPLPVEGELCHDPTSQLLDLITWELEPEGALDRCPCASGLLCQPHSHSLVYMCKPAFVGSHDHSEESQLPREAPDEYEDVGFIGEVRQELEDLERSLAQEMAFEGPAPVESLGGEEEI
UniProt P56485: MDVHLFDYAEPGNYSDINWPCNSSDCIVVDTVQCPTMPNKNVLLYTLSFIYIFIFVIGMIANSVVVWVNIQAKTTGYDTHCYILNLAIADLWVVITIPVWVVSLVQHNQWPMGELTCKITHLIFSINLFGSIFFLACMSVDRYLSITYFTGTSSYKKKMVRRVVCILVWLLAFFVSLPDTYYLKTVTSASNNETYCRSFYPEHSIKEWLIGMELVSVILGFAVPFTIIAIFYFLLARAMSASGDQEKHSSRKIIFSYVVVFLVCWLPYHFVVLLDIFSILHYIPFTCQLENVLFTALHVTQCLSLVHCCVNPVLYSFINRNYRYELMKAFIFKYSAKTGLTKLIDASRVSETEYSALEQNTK
UniProt P70658: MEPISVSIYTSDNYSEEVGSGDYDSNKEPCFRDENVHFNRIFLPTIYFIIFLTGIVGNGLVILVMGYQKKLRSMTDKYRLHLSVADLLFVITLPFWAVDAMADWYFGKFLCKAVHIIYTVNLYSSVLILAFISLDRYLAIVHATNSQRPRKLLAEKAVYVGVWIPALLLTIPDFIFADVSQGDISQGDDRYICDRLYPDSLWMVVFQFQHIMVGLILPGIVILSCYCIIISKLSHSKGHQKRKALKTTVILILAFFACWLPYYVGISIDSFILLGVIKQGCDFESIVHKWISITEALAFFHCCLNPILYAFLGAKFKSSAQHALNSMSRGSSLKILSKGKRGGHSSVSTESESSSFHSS

Experiments:
Dkk3-His tagged = Dkk3-His tagged (UniProt Q9QUN9); experiment: pull-down; His-tag pull-down (MagneHis Protein Purification System, nickel magnetic beads); Sca-1+ cells treated with Dkk3-His tagged, Dkk3-His pulled down from the cell lysate, receptors detected by immunoblot; only the target purified
[1] = biological target: CXCR7 (C-X-C chemokine receptor type 7), endogenous in Sca-1+ cells (mouse (endogenous in Sca-1+ vascular progenitor cells)) (UniProt P56485); experiment: co-IP; Sca-1+ VPCs treated with 25 ng/mL of Dkk3 for 3 hours; lysate precleared on control agarose resin; CXCR7 precipitated with anti-CXCR7 antibody (IgG control antibody beside it); immunoblot probed with Dkk3 antibody; only the binder purified
[2] = biological target: CXCR4 (HA tagged) overexpressed in HEK 293T cells (UniProt P70658); experiment: ELISA; saturation binding: lysates of HEK 293T cells overexpressing the receptor loaded onto high-affinity-binding ELISA plates coated with anti-HA antibody; serial dilutions of AP-conjugated ligand (or AP alone); AP activity read; Scatchard analysis; n=3; only the binder purified

| binding (Dkk3-His tagged) | Substance | further results |
| --- | --- | --- |
| no binding | CXCR4 (C-X-C chemokine receptor type 4), endogenous in Sca-1+ cells (from UniProt P70658 1-359) | – |
| binds | CXCR7 (C-X-C chemokine receptor type 7), endogenous in Sca-1+ cells (from UniProt P56485 1-362) | – |
| – | Dkk3 (dickkopf-3) (from UniProt Q9QUN9 23-349) (ligand) | binding [1]: binds |
| – | Dkk3-AP (Dkk3 conjugated with alkaline phosphatase) (from UniProt Q9QUN9 23-349) (ligand) | binding [2]: no binding |
